Mtb cholesterol medium: 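Growth of Mycobacterium tuberculosis over 4 days (cholesterol / DPPC medium with tyloxapol); the read-out is not stated. Concentration: 50 µM. The record gives no direction; compounds that gave an IC50 in retests scored well above the rest, so higher reads as more growth inhibition. About 69,000 compounds were tested under these conditions; 0.54% (about 370) showed 50% or more at least once.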
Mtb glucose medium: 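Growth of Mycobacterium tuberculosis over 3 days (7H9 medium with glucose and tyloxapol); the read-out is not stated. Tested at 50 µM. The record gives no direction; compounds that gave an IC50 in retests scored well above the rest, so higher reads as more growth inhibition. About 69,000 compounds were tested under these conditions; 1.1% (about 760) showed 50% or more at least once.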

Values are the deposited “Percent Effect”, in %.
How 0% and 100% were set is not recorded. Most values in the screen are low, and negative values occur.
The compounds are a random part of those screened.
Two or more numbers in one place are separate tests of the same structure; such repeats can differ widely.

structure,Mtb cholesterol medium,Mtb glucose medium
O=C(COc1coc(CN2CCCCC2)cc1=O)Nc1cccc(Cl)c1,-24.72%,-9.383%
Cc1ccc(NC2CCN(C(=O)Cc3ccc(C#N)cc3)CC2)nn1,9.202%,23.43%
CC(C)c1noc(C(C)N2CCN(CCO)CC2)n1 (stereo unspecified),-28.48%,-39.12%
O=C(O)C(F)(F)F.O=C(O)C(F)(F)F.[H][C@@]12COC[C@]1(CNC(=O)c1ccno1)CN(Cc1ccncc1)C2,-13.29% & 11.35%,2.053%
CN(C)Cc1nnc(C(=O)N(C)Cc2ccc(F)cc2)o1,-4.885%,-12.37%
O=C(O)C(F)(F)F.[H][C@@]12CCN(c3ccc(C)cc3)C[C@@]1([H])O[C@@H](C(=O)NCc1ccco1)C2,-10.3%,14.48%
COC(=O)CN1Cc2cc3c(cc2NCCC1=O)OCO3,7.811%,20.45%
Cn1cc(C[C@H]2[C@H](N3CCOCC3)CCN2C(=O)c2ccco2)cn1.O=C(O)C(F)(F)F,-15.06%,3.494%
c1cncc(N2CCC(c3ccncc3)CC2)c1,13.75% & -3.14%,18.91%
COc1cc(-n2ccnc2-c2ccc(C(=O)O)s2)ccc1NC(C)=O,-9.276%,6.96%
COCC(=O)NC[C@H]1CC[C@H](c2ccnc3ncnn32)CC1,4.297%,-5.143%
CCCc1nc(CN(CCO)Cc2cc(Br)ccc2F)no1,26.67%,42.68% & 35.13%
Cc1ncsc1CCN(C)Cc1cc2n(n1)CCN(Cc1ncc[nH]1)C2,-30.97%,-28.93%
Cc1cc(C)n(CCN2CCN(C(=O)c3ccccc3Br)CC2)n1,9.06%,-0.6508% & 4.833%
CCc1nnc2n1CCN(C(=O)c1cc3ccc(C)cc3[nH]1)C2,13.46%,-1.679%
O=C(CO)N1CCOC2(CCCN(c3ncc(F)cn3)C2)C1.O=C(O)C(F)(F)F (stereo unspecified),2.032%,-1.127% & 11.39%
COCCNc1cc(-c2ccccc2S(N)(=O)=O)c2cc[nH]c2n1,5.33%,-31.62%
COc1cc(NC(=O)N(C)Cc2ccc(Br)o2)ncn1,7.136%,30.58%
Cc1cc(N2Cc3cnn(CCO)c3C2)nc(-c2ccccc2O)n1,37.1%,3.715%
Cc1cnc(-c2nc(-c3cccc(CN4CCOCC4)c3)no2)cn1,-11.87%,-15.58%
CCCNC(=O)COc1cccc(-c2nc(C(C)C)no2)c1,14.36%,13.73%
O=C(NCCC1=CCCCC1)Nc1cc(C(F)(F)F)c[nH]c1=O,14.44%,19.39%
Cc1ccc(C)c(CC(=O)NC2(C#N)CCOCC2)c1,23.22%,37.73%
Cc1nc(-c2ccccc2)n(CC(=O)NC2CCCCC2)n1,15.47%,29.17%
c1cncc(CNCCc2cccs2)c1,1.089%,7.233%
CCNc1cc2c(nn1)CCN(C(=O)c1cc(C)no1)C2,11.42%,-15.27%
Cc1cc(NCCCC(F)(F)F)n2nc(C)cc2n1,72.21%,71.07%
COCCNc1ncc(-c2cccc(F)c2)c(-c2nccn2C)n1,-18.02%,-17.59%
COc1ccc(CNC(=O)NC(C)(C(=O)O)c2ccco2)cc1F (stereo unspecified),-17.53%,-21.85%
CNC(=O)Cc1noc(-c2cc3c(s2)CCCCCC3)n1,16.94%,8.201% & -4.065%
N#Cc1cnc(N2Cc3cnn(Cc4ccc(F)cc4)c3C2)nc1N,8.548% & 11.95%,1.204%
COC(=O)c1sccc1S(=O)(=O)N1CCc2c(ncnc2N(C)C)C1,-2.43%,5.876%
Cn1ccnc1CNc1ccc(F)c(N2CCCS2(=O)=O)c1,4.495%,-8.112%
CC(C)(C)c1cnc(CN(Cc2cccnc2)CC2CCCO2)o1 (stereo unspecified),11.98%,9.445%
Cc1cncc(NCc2ccccc2N2CCOCC2)c1,53.3%,38.71%
O=C(O)C(F)(F)F.[H][C@@]12COC[C@@H](CC(=O)N3CCOCC3)[C@]1([H])CN(Cc1ccc(C)s1)C2,-2.388%,-9.94%
CC(Cc1c(F)cccc1F)NC(=O)Nc1cnn(CC(N)=O)c1 (stereo unspecified),-4.138%,-0.9385%
CCOCCNC(=O)c1cccnc1N1CCCC1c1ccccn1 (stereo unspecified),-9.865%,-7.333%
O=S(=O)(NCC1(O)CCOc2ccccc21)c1cccs1 (stereo unspecified),-23.41%,-6.494% & -18.65%
Cc1nc(CN2CCN(C(=O)c3c(C)noc3C)CC2)cs1,-4.061%,-16.15%
CC(C)N(Cc1ccccn1)C(=O)CN(C)C(=O)c1cccs1,-3.159%,-17.49%
c1cc(-c2cn[nH]c2)ncc1CN1CCCCC1,-18.66%,-2.991%
O=C(O)C(F)(F)F.O=C(O)C(F)(F)F.c1cncc(COCc2nnc3n2CCN(Cc2ccsc2)C3)c1,-21.51%,-26.27%
[H][C@]12CCC[C@@]1(COCC1CC1)CN(C(=O)Cc1ccco1)C2,-37.72%,-2.093%
COCCNC(=O)Cc1cnc(-n2cccc2)s1,-13.55%,8.999%
COCC(=O)N1CCC2(CC1)C(=O)N(Cc1cccnc1)CCN2C.O=C(O)C(F)(F)F.O=C(O)C(F)(F)F,27.14%,-41.66%
CC(C)c1nn(C)c(N(C)C)c1CNCc1ccccc1CN(C)C,9.295%,10.03%
COc1ccccc1-n1nc(C(C)C)nc1Cc1nnc(N)s1,-8.295%,-3.151% & -6.536%
C=C(C)COc1cccc(CNC(CC(C)C)c2ncnn2C)c1 (stereo unspecified),-3.376% & -18.07%,-15.56%
CCCn1nc2c(cc1=O)CN(CCCN1CCCC1=O)CC2,-14.89%,-28.81%
Br.Cc1c(NC(=O)CN2CCN(C3CCCC3)C(=O)C2)cnn1C,-11.79% & -10.87%,-7.785%
Cc1ccccc1CS(=O)(=O)NCCCN1CCCCC1,7.975%,15.48%
COC(=O)c1cc(C2CC2)nc2c(Cl)cnn12,-32.52%,4.643%
NC(=O)NCCC(=O)N1CCC(c2cc(Cc3ccccc3)n[nH]2)CC1,-13.06%,-6.54%
O=C(O)C(F)(F)F.c1csc(CN2CCC3(CCOCC3COCC3CC3)CC2)n1 (stereo unspecified),-9.642%,-1.237%
CC(=O)N1CCC2(CC1)c1ncc(-c3ccccc3)n1CCN2C(C)=O,15.79%,-19.34% & -8.424%
[H][C@@]12CCN(S(=O)(=O)c3cccs3)[C@]1([H])CCC(=O)N2CCOC,-32.58%,-26.12%

5 of the entries, repeated:

{"structure": "Cn1cc(C[C@H]2[C@H](N3CCOCC3)CCN2C(=O)c2ccco2)cn1.O=C(O)C(F)(F)F", "Mtb cholesterol medium": -15.06, "Mtb glucose medium": 3.494}
{"structure": "COCC(=O)NC[C@H]1CC[C@H](c2ccnc3ncnn32)CC1", "Mtb cholesterol medium": 4.297, "Mtb glucose medium": -5.143}
{"structure": "COCC(=O)N1CCC2(CC1)C(=O)N(Cc1cccnc1)CCN2C.O=C(O)C(F)(F)F.O=C(O)C(F)(F)F", "Mtb cholesterol medium": 27.14, "Mtb glucose medium": -41.66}
{"structure": "CC(=O)N1CCC2(CC1)c1ncc(-c3ccccc3)n1CCN2C(C)=O", "Mtb cholesterol medium": 15.79, "Mtb glucose medium": "-19.34 & -8.424"}
{"structure": "Cc1ccc(NC2CCN(C(=O)Cc3ccc(C#N)cc3)CC2)nn1", "Mtb cholesterol medium": 9.202, "Mtb glucose medium": 23.43}

Measurements from “University of Dundee, Small-Polar-MMV Screening Library” (2021), ChEMBL document CHEMBL3988442.